# Inconclusive results, whose numbers are uncertain, are shown with a selection of clear calls. For some of these results: Potencies of inconclusive entries are doubtful fits and often do not repeat. Where a structure was tested more than once in an assay, its records may differ in their call. Calls of active or inactive are those of the source. Unless noted, the call rests on the fitted dose curve.
# Sequences of proteins named here, by UniProt entry; tags and fusion partners are left off. A change or cut given only in a name is not applied to a line headed by its entry.
# UniProt P28223, whole entry, looked up: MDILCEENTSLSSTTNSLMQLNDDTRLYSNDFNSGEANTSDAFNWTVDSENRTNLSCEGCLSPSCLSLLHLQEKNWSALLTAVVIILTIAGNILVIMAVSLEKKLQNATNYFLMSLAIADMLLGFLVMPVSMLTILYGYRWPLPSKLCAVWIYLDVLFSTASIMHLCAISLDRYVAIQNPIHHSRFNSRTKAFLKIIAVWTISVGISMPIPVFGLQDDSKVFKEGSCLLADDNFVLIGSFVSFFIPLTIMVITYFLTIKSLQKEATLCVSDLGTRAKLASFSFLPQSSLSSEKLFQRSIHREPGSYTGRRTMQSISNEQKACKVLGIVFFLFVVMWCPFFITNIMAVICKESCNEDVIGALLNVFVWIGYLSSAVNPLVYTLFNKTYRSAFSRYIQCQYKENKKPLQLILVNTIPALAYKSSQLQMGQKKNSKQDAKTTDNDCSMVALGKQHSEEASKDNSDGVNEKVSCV
# UniProt P11229: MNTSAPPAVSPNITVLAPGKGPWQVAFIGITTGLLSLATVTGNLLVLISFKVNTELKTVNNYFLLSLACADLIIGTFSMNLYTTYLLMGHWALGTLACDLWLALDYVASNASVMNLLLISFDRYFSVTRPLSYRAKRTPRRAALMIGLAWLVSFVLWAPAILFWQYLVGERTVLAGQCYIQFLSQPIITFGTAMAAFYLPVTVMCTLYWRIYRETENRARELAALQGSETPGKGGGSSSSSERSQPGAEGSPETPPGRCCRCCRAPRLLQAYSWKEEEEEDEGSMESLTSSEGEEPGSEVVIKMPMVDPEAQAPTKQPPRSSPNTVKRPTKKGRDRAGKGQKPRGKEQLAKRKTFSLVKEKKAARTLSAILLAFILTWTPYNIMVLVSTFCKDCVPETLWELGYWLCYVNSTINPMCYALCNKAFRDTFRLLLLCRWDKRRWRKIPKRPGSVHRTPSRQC
# UniProt P14416, whole entry, looked up: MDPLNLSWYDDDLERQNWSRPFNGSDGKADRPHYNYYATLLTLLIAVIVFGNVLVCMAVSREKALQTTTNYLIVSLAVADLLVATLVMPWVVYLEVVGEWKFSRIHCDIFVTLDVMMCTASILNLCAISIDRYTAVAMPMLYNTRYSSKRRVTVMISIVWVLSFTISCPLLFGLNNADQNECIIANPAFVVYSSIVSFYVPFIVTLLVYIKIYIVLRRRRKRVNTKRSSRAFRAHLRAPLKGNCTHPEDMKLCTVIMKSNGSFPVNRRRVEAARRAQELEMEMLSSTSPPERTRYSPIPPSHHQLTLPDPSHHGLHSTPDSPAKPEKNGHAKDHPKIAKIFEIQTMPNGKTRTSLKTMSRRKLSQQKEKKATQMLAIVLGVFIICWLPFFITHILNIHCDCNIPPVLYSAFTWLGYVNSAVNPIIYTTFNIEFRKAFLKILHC
# Legend:
# [1] = Nuclear factor erythroid 2-related factor 2/antioxidant responsive element (Nrf2/ARE) small molecule agonists: luciferase reporter gene qHTS assay in human keratinocytes (AID 1919969); details: KeratinoSens HaCaT ARE-luciferase, luminescence, 24 h; activity, positive = activation: at 92.4 µM (top of the series); further: nearly all actives have a fitted effect of over 35% in size; on activity, positive = activation: on the % scale 0 is the no-effect control and ±100 the full control effect
# [2] = p53 small molecule agonists, cell-based qHTS assay with rat liver microsomes: qHTS cell viability counter screen (AID 1963580); details: p53RE-bla HCT-116 + rat microsomes, ATP viability, 16 h; series mostly up to 66 µM; further: nearly all actives have a fitted effect of over 45% in size
# How it was run: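 After the beta-lactamase ratio was read, CellTiter-Glo was added to the same wells and luminescence measured at 30 min; cells had been treated 16 h at 37 C with compounds, rat liver microsomes and NADPH (0.5 mg/mL final each).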
# [3] = p53 small molecule agonists, cell-based qHTS assay: qHTS cell viability counter screen (AID 1963581); details: p53RE-bla HCT-116 viability, ATP luminescence, 16 h; series mostly up to 66 µM; further: nearly all actives have a fitted effect of over 45% in size
# How it was run: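 qHTS counter screen: 16 h compound exposure at 37 C of p53RE-bla HCT-116 cells (4,000 per well, seeded 5 h prior), cell viability by ATP luminescence.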
# [4] = target: 5-hydroxytryptamine receptor 2A (Homo sapiens) (UniProt P28223); experiment: 5-hydroxytryptamine receptor 2A (HTR2A) small molecule antagonists, cell-based qHTS assay (AID 1963586); details: HTR2A-CHO cells, DOI-induced calcium flux, fluorescence; series mostly up to 61.5 µM; further: nearly all actives have a fitted effect of over 45% in size
# How it was run: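 CHO cells stably expressing human HTR2A were plated for 18 h at 37 C, then loaded with calcium dye for 1 h. Compounds were preincubated 5 min at room temperature before DOI (4 nM solution) was added. Kinetic fluorescence was read for 3 min.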
# [5] = target: Muscarinic acetylcholine receptor M1 (Homo sapiens) (UniProt P11229); experiment: Cholinergic receptor muscarinic 1 (CHRM1) small molecule antagonists, cell-based qHTS assay (AID 1963588); details: CHRM1-CHO antagonist mode, calcium flux fluorescence; series mostly up to 61.5 µM; further: nearly all actives have a fitted effect of over 40% in size
# How it was run: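 Compounds were tested at 15 concentrations in three independent runs. Dye-loaded CHRM1-CHO cells were exposed 5 min at room temperature before stimulation by acetylcholine added at 50nM. Intracellular calcium was read kinetically on FDSS for 3 min.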
# [6] = cAMP Responsive Elements (CRE) small molecule agonists, cell-based qHTS assay (AID 1963590); details: CRE-bla HEK293T, beta-lactamase FRET ratio, 3 h; activation: at 92.4 µM (top of the series) unless noted; on activation: on the % scale 0 is the no-effect control and ±100 the full control effect
# How it was run: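 Test agents in DMSO were incubated 3 h at 37 C/5% CO2 with CRE-bla HEK 293T cells seeded 18 h earlier; LiveBLAzer B/G FRET substrate was added and read after 2 h at room temperature.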
# [7] = cAMP Responsive Elements (CRE) small molecule antagonists, cell-based qHTS assay (AID 1963591; active means well fitted inhibition curve with a large enough effect in the signal ratio in the repeat runs, not every such curve was filed as active; inconclusive means weak or mixed curves, or effect the other way; the % refers to the signal ratio); details: CRE-bla HEK293T, beta-lactamase FRET ratio; activity change, negative = inhibition: at 92.4 µM (top of the series) unless noted
# How it was run: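 Reporter line CRE-bla HEK 293T in dialyzed-FBS DMEM; cells preincubated 18 h, treated 3 h with compound plus NKH477 (0.25 uM final); LiveBLAzer FRET, 2 h RT.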
# [8] = target: Beta-2 adrenergic receptor (Homo sapiens) (UniProt P07550); experiment: Adrenergic beta2 receptor (ADRB2) small molecule agonists, cell-based qHTS assay (AID 1963593); details: CHO-ADRB2 cells, cAMP HTRF, 30 min; activation: at 92.4 µM (top of the series) unless noted;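 on activation: CHO cells stably overexpressing human ADRB2; on the % scale 0 is the no-effect control and ±100 the full control effect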
# How it was run: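 CHO cells stably over-expressing ADRB2 were plated overnight at 37C, then dosed with compounds plus a stimulation mix containing 100uM IBMX and 25uM Ro-20-1724 for 0.5hr at room temperature. cAMP was measured by HTRF competition, 1hr.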
# [9] = target: D(2) dopamine receptor (Homo sapiens) (UniProt P14416); experiment: Dopamine D2 receptor (DRD2) small molecule antagonists, cell-based qHTS assay (AID 1963595; active means well fitted inhibition curve with a large enough effect in the signal ratio in the repeat runs, with a control signal flat; inconclusive means weak or mixed curves, or effect the other way; the % refers to the signal ratio); details: HEK293-DRD2 cAMP HTRF antagonist mode; activity change, negative = inhibition: at 92.4 µM (top of the series) unless noted
# How it was run: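 Antagonist mode in DRD2-HEK293 cells: after compound addition with 0.1 mM Ro20-1724, cells received quinpirole (12 nM) and NKH477 (200 nM) for 30 min at room temperature; HTRF cAMP read after 1 h detection.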
# [10] = p53 small molecule agonists, cell-based qHTS assay (AID 1963582; active means well fitted activation curve with a large enough effect in the signal ratio in the repeat runs, not every such curve was filed as active; inconclusive means weak or mixed curves; the % refers to the signal ratio; on activation: on the % scale 0 is the no-effect control and ±100 the full control effect); details: HCT-116 p53RE-bla reporter, beta-lactamase FRET ratio, 16 h; activation: at 66 µM (top of the series) unless noted
# How it was run: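 Measured: fluorescence from cleaved LiveBLAzer substrate. System: p53RE-bla cells, 16 h compound treatment at 37 C, 2 h substrate step at room temperature.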
# [11] = target: 5-hydroxytryptamine receptor 2A (Homo sapiens) (UniProt P28223); experiment: 5-hydroxytryptamine receptor 2A (HTR2A) small molecule agonists, cell-based qHTS assay (AID 1963587); details: HTR2A-CHO cells, calcium flux fluorescence, agonist mode; series mostly up to 76.8 µM; further: nearly all actives have a fitted effect of over 30% in size
# How it was run: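 CHO cells stably expressing human HTR2A, plated 18 h, loaded with calcium dye 1 h at 37 C. Agonist mode: compounds added and intracellular calcium fluorescence recorded kinetically for 2 min at 1 sec intervals.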
# [12] = target: D(2) dopamine receptor (Homo sapiens) (UniProt P14416); experiment: Dopamine D2 receptor (DRD2) small molecule agonists, cell-based qHTS assay (AID 1963594); details: HEK293-DRD2 cAMP HTRF, agonist mode, 30 min; activation: at 92.4 µM (top of the series) unless noted; further: nearly all actives have a fitted effect of over 35% in size
# How it was run: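 HEK293 cells stably expressing human DRD2, pre-treated with PDE inhibitor Ro20-1724 (0.1 mM final) and compound 10 min at room temperature, then stimulated with NKH477 (200nM […]) for 30 min. cAMP read by HTRF (665/620 nm).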
# [13] = target: Beta-2 adrenergic receptor (Homo sapiens) (UniProt P07550); experiment: Adrenergic beta2 receptor (ADRB2) small molecule antagonists, cell-based qHTS assay (AID 1963592); details: CHO-ADRB2 cells, isoproterenol-stimulated cAMP HTRF ratio, 0.5 h; activity change, negative = inhibition: at 92.4 µM (top of the series) unless noted; further: nearly all actives have a fitted effect of over 50% in size
# How it was run: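 Assay format: CHO-ADRB2 cells, 18-20hr seeding at 37C/5% CO2, then compound plus 1nM isoproterenol agonist mix for 0.5hr RT. Homogeneous time-resolved fluorescence cAMP detection after 1hr, expressed as 665/615 nm ratio.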
# Potency means the concentration at half of the fitted maximal effect.
smiles,measurement,setting,value
CCCCCCCCCCCCCC[P+](CCCC)(CCCC)CCCC (tested in a mixture with another compound),Potency,[1],"inconclusive: 4.89 µM [activator, partial curve]"
same,Potency,[2],"inconclusive: 2.59 µM [cytotoxic, full curve]"
same,Potency,[3],active: 16.3 µM
same,Potency,[4],"inconclusive: 10.6 µM [inhibitor, partial curve, poor fit]"
same,Potency,[5],"inconclusive: 4.23 µM [inhibitor, single point]"
same,Potency,[6],"inconclusive: 1.23 µM [fluorescent, full curve]"
same,Potency,[7],"inconclusive: 1.73 µM [fluorescent, full curve]"
same,Potency,[8],inactive
same,Potency,[9],active: 27.5 µM
CCc1cnc(C(=O)O)c(C(=O)O)c1,Potency,[1],inactive
same,Potency,[2],inactive
same,Potency,[10],inactive
same,Potency,[6],inactive
same,Potency,[8],inactive
CCCCN1C(=O)[C@@H]([C@H](O)C2CCCCC2)NC(=O)C12CCN(Cc1ccc(Oc3ccc(C(=O)O)cc3)cc1)CC2,Potency,[1],"inconclusive: 15.4 µM [activator, partial curve]"
same,Potency,[3],"inconclusive: 22.9 µM [rising, partial curve]"
same,Potency,[10],"inconclusive: 4.58 µM [fluorescent, full curve]"
same,Potency,[4],"inconclusive: 0.149 µM [inhibitor, full curve, poor fit]"
same,Potency,[11],active: 24.5 µM
same,Potency,[6],"inconclusive: 8.63 µM [fluorescent, full curve]"
same,Potency,[7],"inconclusive: 9.69 µM [fluorescent, partial curve]"
same,activation,[8],inconclusive: 38.5%
same,Potency,[12],"inconclusive: 77 µM [rising, single point]"
Cn1c(N)nc2nc[nH]c2c1=O,Potency,[1],"inconclusive: 67.8 µM [activator, single point]"
same,Potency,[3],"inconclusive: 35.9 µM [rising, partial curve]"
same,Potency,[10],"inconclusive: 20.2 µM [activator, partial curve, poor fit]"
same,Potency,[6],"inconclusive: 67.8 µM [rising, partial curve, poor fit]"
same,Potency,[7],inactive
same,Potency,[13],inconclusive: 67.8 µM [inhibitor]
same,Potency,[8],"inconclusive: 42.8 µM [inhibitor, partial curve]"
same,"activity change, negative = inhibition",[9],inconclusive: 23.7%
CC(C)O,Potency,[1],"inconclusive: 73.6 µM [activator, single point]"
same,Potency,[2],"inconclusive: 55.1 µM [cytotoxic, single point]"
same,Potency,[6],"inconclusive: 0.0033 µM [inhibitor, full curve, poor fit]"
same,Potency,[8],"inconclusive: 0.261 µM [inhibitor, single point]"
CO[C@@H]1[C@H](OC(=O)/C=C/C=C/C=C/C=C/C(=O)O)CC[C@]2(CO2)[C@H]1[C@@]1(C)O[C@@H]1CC=C(C)C,Potency,[1],active: 61.1 µM
same,Potency,[3],inactive
same,Potency,[10],"inconclusive: 32.4 µM [fluorescent, partial curve]"
same,"activity change, negative = inhibition",[7],inconclusive: 15.6%
CCc1cc(SCc2sc(-c3ccc(C(F)(F)F)cc3)nc2CN2CCN(c3ccc(OC)cc3)CC2)ccc1OCC(=O)O,Potency,[1],"inconclusive: 30.6 µM [activator, single point]"
same,Potency,[3],active: 12.9 µM
same,Potency,[10],"inconclusive: 25.7 µM [falling, partial curve]"
same,Potency,[11],"inconclusive: 61.6 µM [activator, partial curve, poor fit]"
same,Potency,[5],"inconclusive: 9.42 µM [inhibitor, full curve]"
same,Potency,[6],"inconclusive: 19.3 µM [fluorescent, full curve]"
same,Potency,[7],"inconclusive: 27.3 µM [fluorescent, partial curve]"
same,"activity change, negative = inhibition",[13],inconclusive: -47.9%
same,Potency,[8],"inconclusive: 77 µM [inhibitor, partial curve, poor fit]"
same,"activity change, negative = inhibition",[9],inconclusive: -3.56%
CCC(Cl)CCC(Cl)C(Cl)CC(Cl)C(Cl)C(Cl)CCl (stereo unspecified),Potency,[1],"inconclusive: 68 µM [activator, single point]"
same,Potency,[2],"inconclusive: 50.9 µM [cytotoxic, single point]"
same,activation,[8],inconclusive: 15.6%
O=Cc1c2ccccc2c(Cl)c2ccccc12,Potency,[1],active: 7.51 µM
same,Potency,[3],"inconclusive: 1.99 µM [rising, full curve]"
same,Potency,[10],inconclusive: 2.24 µM
same,"activity change, negative = inhibition",[13],inconclusive: -0.655% [at 42.5 µM]
same,Potency,[8],inactive
CCCCCCCC/C=C\CCCCCCCC(=O)OCCOC(=O)CCCCCCC/C=C\CCCCCCCC,Potency,[1],"inconclusive: 28.3 µM [activator, single point]"
same,Potency,[2],inactive
same,"activity change, negative = inhibition",[7],inconclusive: -8.46%
same,activation,[8],inconclusive: 31.1%

# At a glance, part of the list above:
smiles,measurement,setting,value
CCc1cc(SCc2sc(-c3ccc(C(F)(F)F)cc3)nc2CN2CCN(c3ccc(OC)cc3)CC2)ccc1OCC(=O)O,Potency,[10],"inconclusive: 25.7 µM [falling, partial curve]"
same,Potency,[11],"inconclusive: 61.6 µM [activator, partial curve, poor fit]"
same,Potency,[5],"inconclusive: 9.42 µM [inhibitor, full curve]"
same,Potency,[6],"inconclusive: 19.3 µM [fluorescent, full curve]"

# — PubChem BioAssay (Tox21)
